pEC50, pIC50: −log10 of the molar value.
System: CEM cells HIV-1 protection, formazan growth assay
Test: NCI AIDS Antiviral Assay
Conditions: for pIC50: measured here: growth of uninfected CEM cells
Method in brief: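 Steps: treat uninfected and HIV-1-infected human CEM cells at five drug levels; quantify growth by soluble formazan; retest any compound reaching 50% protection; classify actives from the retest.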

SMILES	pEC50	pIC50
O=C1Cc2c([nH]c3ccc(F)cc23)-c2ccccc2N1	< 3.70	5.01
Cc1ccc2[nH]c3c(c2c1)CC(=O)Nc1ccccc1-3	< 3.70	< 3.70
